Measured values from patent US7622551B2, “Leukocyte stimulating peptides” (POSCO, priority 2004, dated 2009).
Some entries share one result that the patent states for a list of compounds. Some ranges recur; such a range may be that of the whole group of compounds.

Tests used:
[1] = tested on: differentiated HL60 cells; assay: [Ca2+]i increase in fura-2 loaded dHL60 cells; type: cell-based, human; conditions: data not shown
Method: U937 (human histiocytic lymphoma cells), HL60 (human promyelocytic leukemia cells), Raw 264.7 (mouse macrophage), Jurkat (human acute T cell leukemia), PC12 (rat adrenal pheochromocytoma cells), 3Y1 (Rat embryonic fibroblasts), 3T3L1 (preadipocytes), and NCI-H292 (human mucoepidermoid pulmonary carcinoma cells) were obtained from the American Type Culture Collection (Rockville, Md.) and maintained as recommended. FPR- or FPRL1 expressing RBL-2H3 cells were cultured as described previously (He et al. J. Immunol. 2000. 165: 4598-4605). Cells were maintained at about 1×10^6 cells/ml under standard incubator conditions (humidified atmosphere, 95% air, 5% CO2, at 37° C.). HL60 cells were induced to differentiate into the granulocyte phenotype by adding dimethylsulfoxide (DMSO) (final concentration 1.25%, v/v) for 4 days to the culture medium, as described previously (Itoh et al. Blood. 1998. 92: 1432-1441).
The level of [Ca^2+]i was determined using Grynkiewicz's method using fura-2/AM (Grynkiewicz et al. J. Biol. Chem. 1985. 260: 3440-3550). Briefly, prepared cells were incubated with 3 μM of fura-2/AM at 37° C. for 50 min in serum-free RPMI 1640 medium under continuous stirring. 2×10^6 cells were aliquoted for each assay in Ca^2+ free Locke's solution (154 mM NaCl, 5.6 mM KCl, 1.2 mM MgCl2, 5 mM HEPES, pH 7.3, 10 mM glucose, and 0.2 mM EGTA). Fluorescence changes were measured at the dual excitation wavelength of 340 nm and 380 nm, and the calculated fluorescence ratio was translated into [Ca^2+]i.

[2] = tested on: human neutrophils; assay: Chemotaxis assay (modified Boyden chamber), neutrophils; type: cell-based; conditions: FIG. 6A; for Maximal cellular migration-inducing activity relative to that induced by 1 μM of fMLF: human neutrophils
Method: FIGS. 6A and 6B show chemotactic effect of peptides. Assays were performed using a modified Boyden chamber assay, as described in the Examples. Isolated human neutrophils (A) or monocytes (B) (1×10^6 cells/ml in serum free RPMI) were added to the upper wells of a 96-well chemotaxis chamber and migration across a 3 μm pore size (5 μm for monocytes) polycarbonate membrane was assessed after 2 hrs incubation at 37° C. The numbers of migrated cells were determined by counting them in a high power field (400×). Results are presented as means±S.E. of three independent experiments each performed in duplicate.
Chemotaxis assays were performed using multiwell chambers (Neuroprobe Inc., Gaithersburg, Md.) (Bae et al. Blood. 2001. 97: 2854-2862). Briefly, prepared human monocytes were suspended in RPMI at a concentration of 1×10^6 cells/ml, and 25 μl of the suspension was then placed onto the upper well of a chamber separated by a 5 μm polyhydrocarbon filter (3 μm pores size not polyvinylpyrrolidone coated, as is needed for neutrophils) from peptides or N-formyl-methionyl-leucyl-phenylalanine (fMLF) in the lower well. After incubation for 2 hours (90 minutes for neutrophils) at 37° C., non-migrated cells were removed by scraping, and cells that migrated across the filter were dehydrated, fixed, and stained with hematoxylin (Sigma, St. Louis, Mo.). Stained cells were counted in five randomly chosen high power fields (HPF) (400×) (Bae et al. Blood. 2001. 97: 2854-2862).

“KKHYKM-NH2 (C-terminal amide) [Peptide P3]” was tested, and the “Concentration of maximal activity, [Ca^2+]i increase” value (“Concentration … [Ca^2+]i increase” for short) [1] was “exceeding 20 μM”.

For “KKHYPM-NH2 (C-terminal amide) [Peptide P4]”, the “Concentration … [Ca^2+]i increase” value [1] was “exceeding 20 μM”.

With “KKHYVM-NH2 (C-terminal amide) [Peptide P5]” the “Concentration … [Ca^2+]i increase” value [1] was “exceeding 20 μM”.

With “KKHYYM-NH2 (C-terminal amide) [Peptide P6]” the “Concentration … [Ca^2+]i increase” value [1] was “exceeding 20 μM”.

“MKYYKM-NH2 (C-terminal amide) [Peptide P21]” was tested, and the “Concentration range inducing migration of human neutrophils” value [2] was 1 to 10 µM and the “Maximal cellular migration-inducing activity relative to that induced by 1 μM of fMLF” value [2] was “more than 200%”.

In the case of “RKYHVM-NH2 (C-terminal amide) [Peptide P14]”, the “Concentration range inducing migration of human neutrophils” value [2] is reported as 1 to 10 µM and the “Maximal cellular migration-inducing activity relative to that induced by 1 μM of fMLF” value [2] is reported as “more than 200%”.
